Where a name gives a salt, the structure may show the parent alone. This is one part of the list. Small differences around the control level are noise. Where a SMILES comes first, the peptide text is derived from it. Bridges are numbered along the chain shown (N, C = ends). [ ]: non-standard residue; d: D form. The star is where a group is joined. Heptanoyl(6-Me) = CC(C)CCCCC(=O)*; Dab = NCC[C@H](N)C(=O)O
What was measured:
Conditions in all cases: 5 µM; treatment: days 7-14 after plating, readout day 21
[1] = tested on: hPSC-derived cortical neurons (WA09); experiment: nucleus area z-score vs screen plate; higher = larger nuclei (more mature)
[2] = tested on: hPSC-derived cortical neurons (WA09); experiment: total neurite length per nucleus (MAP2) z-score; higher = more neurite growth
[3] = tested on: hPSC-derived cortical neurons (WA09); experiment: nucleus roundness z-score vs screen plate; higher = rounder nuclei (more mature)
[4] = tested on: hPSC-derived cortical neurons (WA09); experiment: KCl-induced FOS+/EGR-1+ double-positive nuclei fraction z-score (KCl minus unstimulated); higher = stronger activity-induced IEG response

Row | Structure (SMILES) | nucleus area z-score [1] | total neurite length per nucleus (z-score) [2] | nucleus roundness z-score [3] | KCl-induced FOS+/EGR-1+ double-positive nuclei fraction z-score [4]
1 | CN(C)CCCOc1nn(Cc2ccccc2)c2ccccc12 [Benzydamine HCl] | 0.531 | -0.187 | -0.476 | 0.182
2 | Oc1cccc(O)c1 [Resorcinol] | -0.125 | 1.18 | 0.527 | 0.631
3 | CCCCCCCCCCCCCCCC(=O)O[C@@H]1[C@@H](O)[C@@H](O)[C@@H]([C@H](NC(=O)[C@@H]2C[C@@H](CCC)CN2C)[C@H](C)Cl)O[C@@H]1SC [Clindamycin palmitate HCl] | -0.382 | -2.5 | -3.3 | -1.56
4 | CC(C)CCCCC(=O)N[C@@H](CCN)C(=O)N[C@H](C(=O)N[C@@H](CCN)C(=O)N[C@H]1CCNC(=O)[C@H]([C@@H](C)O)NC(=O)[C@H](CCN)NC(=O)[C@H](CCN)NC(=O)[C@H](CC(C)C)NC(=O)[C@@H](Cc2ccccc2)NC(=O)[C@H](CCN)NC1=O)[C@@H](C)O [Polymyxin B sulphate] ({Heptanoyl(6-Me)}-[Dab]T[Dab][Dab][Dab][dF]L[Dab][Dab]T; lactam 4-C) | 0.626 | -0.133 | 0.0573 | 1.8
5 | CN(C)Cc1c(C(=O)NCCOc2ccc(C(=O)NO)cc2)oc2ccccc12 | -7.26 | -2.43 | -3.1 | -0.507
6 | CCOC(=O)N1CCC(=C2c3ccc(Cl)cc3CCc3cccnc32)CC1 [Loratadine] | -0.56 | -0.2 | -0.396 | -0.571
7 | COc1nc(C)cnc1NS(=O)(=O)c1cccnc1-c1ccc(-c2nnco2)cc1 [Zibotentan (ZD4054)] | -1.19 | -1.03 | 0.224 | 0.0462
8 | C[C@H]1Oc2cc(cnc2N)-c2c(nn(C)c2C#N)CN(C)C(=O)c2ccc(F)cc21 | 0.911 | 1.93 | 0.202 | 0.0606
9 | CN1CCC(COc2cnc(-c3cccc(Cn4nc(-c5cccc(C#N)c5)ccc4=O)c3)nc2)CC1 | -0.845 | -0.614 | 0.377 | 1.04
10 | CN(C)CC(c1ccc(O)cc1)C1(O)CCCCC1 (stereo not drawn) [Desvenlafaxine] | -0.046 | 2.29 | 0.0285 | 1.3
11 | COc1ccc(CNC(=O)Nc2ncc([N+](=O)[O-])s2)cc1 | 0.895 | 2.2 | 1.73 | 1.24
12 | CN(C)CCc1c[nH]c2ccc(CS(=O)(=O)N3CCCC3)cc12 [Almotriptan Malate] | -1.02 | 0.0619 | 0.672 | 0.234
13 | C#CCN[C@@H]1CCc2ccccc21 [Rasagiline Mesylate] | 0.257 | 1.04 | 1.18 | 1.2
14 | C[C@]12CC[C@@H]3c4ccc(O)cc4CC[C@H]3[C@@H]1C[C@@H](O)[C@@H]2O [Estriol] | 1.21 | 0.0643 | -0.304 | 1.13
15 | C[C@@H]1C[C@H]2[C@@H]3C[C@H](F)C4=CC(=O)C=C[C@]4(C)[C@@]3(F)[C@@H](O)C[C@]2(C)[C@@]1(O)C(=O)CO [Flumethasone] | 0.258 | 0.26 | 0.0838 | -0.338
16 | CN(C)C(=S)NN=C(c1ccccn1)c1ccccn1 | -17.5 | -5.96 | -5.31 | -1.46
17 | NC(=O)CC[C@@H](N)C(=O)O [D-glutamine] | 1.18 | 0.266 | 0.35 | -0.121
18 | N#CSc1cc(SC#N)c(N)nc1N | -3.71 | -2.47 | -4 | -0.872
19 | NC(=O)c1ccc(I)c([N+](=O)[O-])c1 [Iniparib (BSI-201)] | 0.0297 | 0.116 | -1.36 | -0.407

Reformatted in markdown: part of the list above

| Row | Structure (SMILES) | nucleus area z-score [1] | total neurite length per nucleus (z-score) [2] | nucleus roundness z-score [3] | KCl-induced FOS+/EGR-1+ double-positive nuclei fraction z-score [4] |
| --- | --- | --- | --- | --- | --- |
| 10 | CN(C)CC(c1ccc(O)cc1)C1(O)CCCCC1 (stereo not drawn) [Desvenlafaxine] | -0.046 | 2.29 | 0.0285 | 1.3 |
| 11 | COc1ccc(CNC(=O)Nc2ncc([N+](=O)[O-])s2)cc1 | 0.895 | 2.2 | 1.73 | 1.24 |
| 12 | CN(C)CCc1c[nH]c2ccc(CS(=O)(=O)N3CCCC3)cc12 [Almotriptan Malate] | -1.02 | 0.0619 | 0.672 | 0.234 |
| 13 | C#CCN[C@@H]1CCc2ccccc21 [Rasagiline Mesylate] | 0.257 | 1.04 | 1.18 | 1.2 |
| 14 | C[C@]12CC[C@@H]3c4ccc(O)cc4CC[C@H]3[C@@H]1C[C@@H](O)[C@@H]2O [Estriol] | 1.21 | 0.0643 | -0.304 | 1.13 |

Later entries:

Row | Structure (SMILES) | nucleus area z-score [1] | total neurite length per nucleus (z-score) [2] | nucleus roundness z-score [3] | KCl-induced FOS+/EGR-1+ double-positive nuclei fraction z-score [4]
20 | CC(C)C[C@H](NC(=O)CNC(=O)c1cc(Cl)ccc1Cl)B(O)O | -16.6 | -5.34 | -7.8 | -1.15
21 | Oc1cc(O)c(Cl)cn1 [Gimeracil] | 1.13 | -1.54 | -1.77 | -0.368
22 | O[C@H]1[C@H](O)[C@@H](O)[C@H](O)[C@@H](O)[C@H]1O [i-Inositol] | -0.207 | 0.118 | 1.27 | 2.07
23 | CN[C@@H]1[C@@H](O)[C@@H](O[C@@H]2[C@@H](O)[C@H](O[C@H]3O[C@H](CN)[C@@H](O)[C@H](O)[C@H]3O)[C@@H](N)C[C@H]2NC(=O)[C@@H](O)CN)OC[C@]1(C)O [Isepamicin Sulphate] | 1.51 | -1.5 | -0.965 | 0.617
24 | Cc1ccc(NC(=O)c2ccc(CN3CC[C@H](N(C)C)C3)c(C(F)(F)F)c2)cc1Nc1nccc(-c2cncnc2)n1 [Bafetinib (INNO-406)] | -0.188 | -0.166 | 0.0917 | 0.021
25 | C[N+](C)(C)NCCC(=O)[O-] [Mildronate] | 1.52 | 0.273 | 0.852 | 0.18
26 | O=S(=O)(c1ccccc1)c1cnc2c(N3CCNCC3)cccc2c1 | -0.337 | 1.57 | 1.74 | 0.306
27 | O=C(O)CCCCCCCC(=O)O [Azelaic acid] | -0.425 | -0.473 | -0.267 | -0.1
28 | c1cn2cc(-c3ccc4cn[nH]c4c3)nc(Nc3ccc(N4CCOCC4)cc3)c2n1 | 0.415 | 0.476 | 0.162 | -0.0358
29 | O=C(CCc1ccc(O)cc1)c1c(O)cc(O)cc1O[C@@H]1O[C@H](CO)[C@@H](O)[C@H](O)[C@H]1O [Phlorizin] | -0.66 | 1.09 | 0.572 | 0.208
30 | NC(=O)Nc1sc(-c2ccc(F)cc2)cc1C(N)=O | 0.489 | 0.407 | -0.0605 | -0.793
31 | N[C@H]1C[C@@H]1c1ccc(-c2cccc(O)c2)cc1 | 1.63 | 1.05 | 0.828 | 0.967
32 | COc1ccc([C@@H]2Sc3ccccc3N(CCN(C)C)C(=O)[C@@H]2OC(C)=O)cc1 [Diltiazem HCl] | 0.486 | 0.614 | 0.982 | 0.0641
33 | OCC(O)CN1CCN(c2ccccc2)CC1 (stereo not drawn) [Dropropizine] | 0.016 | 0.585 | -0.0393 | -0.17
34 | CCC1(C)CC(=O)NC1=O (stereo not drawn) [Ethosuximide] | 0.114 | 0.849 | 0.122 | 0.192
35 | O=c1c2ccccc2nc2n1CCc1c-2[nH]c2ccccc12 [Rutaecarpine] | 0.182 | 0.417 | 0.0195 | 0.551
36 | O=C1c2c(O)cc(O)cc2OC(c2ccc(O)c(O)c2)C1O (stereo not drawn) [Taxifolin (Dihydroquercetin)] | 0.343 | 0.56 | -0.164 | 0.2
37 | O=C(C[S+]([O-])Cc1ccco1)NC/C=C\COc1cc(CN2CCCCC2)ccn1 (stereo not drawn) [Lafutidine] | 1.11 | 0.381 | -0.296 | 0.539
38 | CC(C)NC[C@@H](C(=O)N1CCN(c2ncnc3c2[C@H](C)C[C@H]3O)CC1)c1ccc(Cl)cc1 | -5.51 | -1.95 | -1.66 | -1.02

Row | Structure (SMILES) | nucleus area z-score [1] | total neurite length per nucleus (z-score) [2] | nucleus roundness z-score [3] | KCl-induced FOS+/EGR-1+ double-positive nuclei fraction z-score [4]
39 | CCC(=O)O[C@@H](O[P@](=O)(CCCCc1ccccc1)CC(=O)N1C[C@H](C2CCCCC2)C[C@H]1C(=O)O)C(C)C [Fosinopril Sodium] | 0.0879 | -0.824 | -0.615 | -0.0563
40 | CC(=O)OCC1=C(C(=O)O)N2C(=O)[C@@H](NC(=O)Cc3cccs3)[C@H]2SC1 [Cephalothin] | 0.757 | 1.08 | -0.715 | 0.265
41 | O=C(O[C@H]1CN2CCC1CC2)N1CCc2ccccc2[C@@H]1c1ccccc1 [Solifenacin succinate] | 0.169 | 1.07 | -1.62 | -0.0235
42 | COc1ccc2cc([C@H](C)C(=O)O)ccc2c1 [Naproxen] | -0.0461 | -1.3 | -3.01 | -1.64
43 | CC[C@]12C=CCN3CC[C@@]4(c5cc([C@@]6(C(=O)OC)C[C@@H]7C[C@@H](C(C)(F)F)CN(Cc8c6[nH]c6ccccc86)C7)c(OC)cc5N(C)[C@H]4[C@@](O)(C(=O)OC)[C@@H]1OC(C)=O)[C@@H]32 [Vinflunine Tartrate] | -14 | -6.15 | -8.96 | -0.601
44 | CC(=O)Nc1ccc(C(=O)Nc2ccccc2N)cc1 [CI994 (Tacedinaline)] | -12.9 | -0.0752 | -11.6 | 3.35
45 | Oc1c(I)cc(Cl)c2cccnc12 [Clioquinol] | -0.394 | 1.41 | 0.74 | 1
46 | OC(CN1CCN(c2cccc(Cl)c2)CC1)C(c1ccccc1)c1ccccc1 (stereo not drawn) | -0.496 | 0.389 | 1.25 | 0.606
47 | CCCCCCCCCCCCCCCCOP(=O)([O-])OCC[N+](C)(C)C [Miltefosine] | 1.23 | 0.0897 | -0.0288 | 0.403
48 | COc1cc(NC(=O)c2ccc(-c3ccc(Cl)cc3)o2)cc(OC)c1 | -0.381 | 0.497 | 0.0486 | 0.449
49 | CC(C)Oc1ccc2c(=O)c(-c3ccccc3)coc2c1 [Ipriflavone (Osteofix)] | 1.25 | -0.296 | 0.413 | 0.498
50 | CC(C)Oc1ccc(C(=O)N[C@H](CNC(=O)CN(C)C)Cc2ccc(-c3cn4cccc([C@H](C)O)c4n3)cc2)cc1Cl | -0.327 | 0.324 | 0.492 | -1.02
51 | CC(C)c1cnn2c(NCc3ccccc3)cc(NCCCCCCN)nc12 | -4.08 | -0.362 | -0.497 | -1.2
52 | c1cnc2cc3c(cc2n1)[C@@H]1CNC[C@H]3C1 [Varenicline Tartrate] | 3.15 | -0.0491 | -0.103 | 0.12
53 | O=C1c2ccccc2C(=O)c2c1ccc(O)c2O [Alizarin] | 0.822 | 0.412 | 0.24 | 1.38
54 | C=C1CC[C@H](O)C/C1=C/C=C1\CCC[C@]2(C)[C@@H]([C@H](C)CCCC(C)(C)O)CC[C@@H]12 [Calcifediol] | 0.734 | 0.453 | 1.02 | 2.42
55 | CCN1CCN(C(=O)N[C@@H](C(=O)N[C@@H]2C(=O)N3C(C(=O)O)=C(CSc4nnnn4C)CS[C@H]23)c2ccc(O)cc2)C(=O)C1=O [Cefoperazone] | 0.61 | 0.266 | 0.376 | -0.381
56 | O=C(O)/C=C/c1ccc(O)c(O)c1 [Caffeic Acid] | -0.418 | 0.145 | 0.568 | 0.185
57 | Nc1ccccc1NC(=O)c1ccc(CNc2nccc(-c3cccnc3)n2)cc1 [Mocetinostat (MGCD0103)] | -16.1 | -6.23 | -6.31 | -0.392
